Source: publication PMC8445599
Changes are numbered by the printed parent chain. These are yes or no findings as the source states them, for the method shown. Binding seen in cells or lysates may run through a third protein. Some results given as binding are weak or reduced against the parent protein; the word gives no strength. For part of these data: Where a sequence is shown, tags or fusion partners need not be part of it. Values belong to the substance of their own block, whether it stands above or below them.

The chains behind the UniProt entries cited, without tags or fusion partners. Residues count along the entry.
UniProt P02545, residues 1-646: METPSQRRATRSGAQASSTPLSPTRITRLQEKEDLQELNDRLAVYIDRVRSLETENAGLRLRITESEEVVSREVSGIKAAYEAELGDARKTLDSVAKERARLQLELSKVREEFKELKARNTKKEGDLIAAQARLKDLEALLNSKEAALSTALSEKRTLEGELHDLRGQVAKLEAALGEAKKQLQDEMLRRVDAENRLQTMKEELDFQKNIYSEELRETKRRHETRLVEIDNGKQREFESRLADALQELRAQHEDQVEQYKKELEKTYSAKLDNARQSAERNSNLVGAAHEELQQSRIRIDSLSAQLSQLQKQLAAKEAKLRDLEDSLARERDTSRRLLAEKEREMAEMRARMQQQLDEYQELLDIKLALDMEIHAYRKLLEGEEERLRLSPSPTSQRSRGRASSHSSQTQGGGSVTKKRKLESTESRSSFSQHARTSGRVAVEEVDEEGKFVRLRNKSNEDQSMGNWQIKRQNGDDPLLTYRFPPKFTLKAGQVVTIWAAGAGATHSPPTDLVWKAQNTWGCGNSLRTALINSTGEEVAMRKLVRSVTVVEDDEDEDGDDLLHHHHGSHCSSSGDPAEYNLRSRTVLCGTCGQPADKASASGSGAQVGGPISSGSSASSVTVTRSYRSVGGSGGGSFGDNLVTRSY
UniProt P36873: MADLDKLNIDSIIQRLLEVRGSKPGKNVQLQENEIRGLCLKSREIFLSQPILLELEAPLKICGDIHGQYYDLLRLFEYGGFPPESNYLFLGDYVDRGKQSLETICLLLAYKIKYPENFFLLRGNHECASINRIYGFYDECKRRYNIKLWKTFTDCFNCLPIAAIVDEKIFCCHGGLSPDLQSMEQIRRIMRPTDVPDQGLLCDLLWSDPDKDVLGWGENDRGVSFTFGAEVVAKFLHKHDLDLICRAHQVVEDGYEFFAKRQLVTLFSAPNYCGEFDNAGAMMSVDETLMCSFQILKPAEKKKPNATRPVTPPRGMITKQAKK

Key:
[1] = molecular target: T1, FLAG–RepoMan (WT) (human) (UniProt Q69YH5); assay: co-IP; 293FT cells co-transfected with FLAG–RepoMan and Myc–PP1γ; IP with anti-FLAG antibody, blot with anti-FLAG and anti-Myc
T1 sequence: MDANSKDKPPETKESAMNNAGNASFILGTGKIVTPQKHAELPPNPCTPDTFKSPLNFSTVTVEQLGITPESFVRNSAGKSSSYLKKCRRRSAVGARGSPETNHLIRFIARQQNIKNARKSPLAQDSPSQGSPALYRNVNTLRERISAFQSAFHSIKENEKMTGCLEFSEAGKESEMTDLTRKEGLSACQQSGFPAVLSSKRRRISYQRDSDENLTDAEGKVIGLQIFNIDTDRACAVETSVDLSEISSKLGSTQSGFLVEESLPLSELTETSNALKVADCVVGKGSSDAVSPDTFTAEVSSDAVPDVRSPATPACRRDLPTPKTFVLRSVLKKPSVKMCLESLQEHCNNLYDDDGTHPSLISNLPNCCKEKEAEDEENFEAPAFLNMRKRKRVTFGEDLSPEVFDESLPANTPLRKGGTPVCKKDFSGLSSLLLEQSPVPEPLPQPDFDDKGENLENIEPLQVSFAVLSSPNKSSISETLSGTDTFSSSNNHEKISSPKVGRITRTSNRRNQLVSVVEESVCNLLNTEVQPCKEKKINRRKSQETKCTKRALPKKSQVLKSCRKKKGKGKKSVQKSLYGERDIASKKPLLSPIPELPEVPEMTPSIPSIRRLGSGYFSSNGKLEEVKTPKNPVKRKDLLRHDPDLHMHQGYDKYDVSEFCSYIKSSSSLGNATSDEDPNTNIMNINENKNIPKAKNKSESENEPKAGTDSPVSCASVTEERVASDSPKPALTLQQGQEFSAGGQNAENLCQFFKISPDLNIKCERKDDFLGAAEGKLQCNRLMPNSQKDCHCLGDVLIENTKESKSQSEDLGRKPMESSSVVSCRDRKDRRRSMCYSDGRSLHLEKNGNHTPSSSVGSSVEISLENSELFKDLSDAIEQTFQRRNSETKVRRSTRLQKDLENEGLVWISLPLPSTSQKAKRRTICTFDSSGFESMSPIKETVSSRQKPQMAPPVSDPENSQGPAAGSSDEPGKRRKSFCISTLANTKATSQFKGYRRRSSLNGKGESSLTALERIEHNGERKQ

[2] = molecular target: T2, FLAG–RepoMan(K762R) (human) (UniProt Q69YH5); assay: as above
T2 sequence: T1 sequence with K762R

[3] = molecular target: HA–lamin A (WT) (human) (UniProt P02545); assay: co-IP; 293FT cells co-transfected with HA–lamin A, FLAG–RepoMan–Ubc9 and CFP or CFP–SUMO-2 (Ubc9 fusion-directed SUMOylation); IP with anti-FLAG or anti-HA magnetic beads, 30 min 4°C; lysis buffer 20 mM HEPES pH 7.4, 150 mM NaCl, 0.5% NP-40, 20 mM N-ethylmaleimide; washes with 100 mM KCl added
[4] = molecular target: T3, RepoMan (endogenous) (human (endogenous in HeLa)) (UniProt Q69YH5); assay: co-IP; endogenous proteins; HeLa cells arrested in M phase (1 µg/ml nocodazole, 16 h); IP with anti-lamin A/C or anti-RepoMan antibody, western blot
T3 sequence: T1 sequence

[5] = molecular target: T3, RepoMan (endogenous) (human (endogenous in HeLa)); assay: co-IP; endogenous proteins; HeLa cells arrested at the G1/S boundary (1.5 mM hydroxyurea, 16 h); IP with anti-lamin A/C or anti-RepoMan antibody, western blot
[6] = molecular target: T3, RepoMan (endogenous) (human (endogenous in HeLa)); assay: co-IP; endogenous proteins; asynchronous HeLa cells; IP with anti-lamin A/C or anti-RepoMan antibody, western blot

binding [1]: binds | binding [2]: binds
Substance: Myc–PP1γ (from UniProt P36873 1-323) (enzyme)

binding [3]: binds
Substance: FLAG–RepoMan(WT)–Ubc9, non-SUMOylated (from UniProt Q69YH5 2-1023; P63279 2-158)

binding [4]: binds | binding [5]: binds weakly | binding [6]: binds weakly
Substance: lamin A/C (endogenous) (from UniProt P02545 1-646)
